Experimental data: PubChem BioAssay AID686937 (Drosophila RNAi Screening Center, 2013)
In all, the deposit lists about 23,000 reagents; shown is an unselected part of those that have a named target and a result. 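Reduced-secretion tags in replicate 1 do not always agree with the z-scores; no criterion for assigning the tags was given.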 Reagents against one gene are numbered here. Not all columns of the deposit are shown. Not stated in the record: the amount of reagent.

Assay: 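Genes in the fly needed for secretion of protein constitutively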 (primary screen)
Cells: Drosophila S2 cells expressing secreted horseradish peroxidase
Knock-down reagent: long dsRNA against Drosophila genes
Time to read-out: about 5.5 days (5 days dsRNA, then 12 h reporter induction)
Challenge: reporter expression induced after 5 days of dsRNA, read 12 h later; inducer not stated
Measured: 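Chemiluminescent measurement of peroxidase in the medium 12 h after reporter induction, following 5 days of dsRNA, given as a z-score per plate; higher means more secretion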
Scale: z-score: higher = more reporter secreted into medium

z-score, replicate 1, by gene and reagent
Ir11a: #1 0.57
CG13894: #1 -1.81
Rlb1: #1 0.34
CG42258: #1 -0.11; #2 -0.49
CG2652: #1 0.45; #2 0.27
Dbx: #1 0.22; #2 0.49; #3 0.29
Blos4: #1 0.61
Syx1A: #1 -0.68; #2 -1.65
CG8837: #1 0.26

Entries listed so far whose target name begins with D or d:
z-score, replicate 1, by gene and reagent
Dbx: #1 0.22; #2 0.49; #3 0.29

More records follow:
z-score, replicate 1, by gene and reagent
CG34205: #1 -0.04; #2 0.86
CG15098: #1 -0.59
CG14731: #1 0.25
Sgt: #1 0.68
MAGE: #1 0.1
C15: #1 0.28; #2 -1.59
Bem46: #1 0.71
Grip128: #1 0.05
CG31875: #1 0.38
CG5126: #1 0.41
Stoml2: #1 0.1
IleRS-m: #1 0.1
CG15127: #1 0.03; #2 0.18
flz: #1 0.45
Trm1: #1 0.39
CG9672: #1 0.37
